The test has as its system CD2F1 mice, L1210 leukemia ip, survival T/C. As to the kind of experiment: NCI In Vivo Anticancer Drug Screen. Data for tumor model L1210 Leukemia (intraperitoneal) in CD2F1 (CDF1) mice. The following applies: higher T/C = longer survival. Summed up: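 Activity against a transplanted murine tumor was judged by comparing the compound group with a vehicle group. The outcome in the treated animals was divided by that in the controls.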

Where [1] appears, read: T/C endpoint: mean survival time, dose: 400.0 mg/kg/injection, schedule: Q01DX009 (ip), vehicle: saline with Tween-80.
The mark [2] stands for this setting: T/C endpoint: median survival time, dose: 400.0 mg/kg/injection, schedule: Q01DX005 (ip), vehicle: Klucel (hydroxypropylcellulose) (HPC).
The mark [3] stands for this setting: T/C endpoint: mean survival time, dose: 100.0 mg/kg/injection, schedule: Q01DX001 (ip), vehicle: saline with Tween-80.
[4] abbreviates: T/C endpoint: mean survival time, dose: 200.0 mg/kg/injection, schedule: Q01DX001 (ip), vehicle: saline with Tween-80.
Where [5] appears, read: T/C endpoint: mean survival time, dose: 400.0 mg/kg/injection, schedule: Q01DX001 (ip), vehicle: saline with Tween-80.
Where [6] appears, read: T/C endpoint: mean survival time, dose: 100.0 mg/kg/injection, schedule: Q04DX002 (ip), vehicle: saline with Tween-80.

Structures are written as SMILES. The list shows only some results of the screen, not a fair sample: it is rich in T/C values a quarter to a half above the control, in often repeated tests (any T/C) and in doses without a T/C. Further doses and runs are listed elsewhere. T/C gives the treated animals as a percentage of the vehicle group. Some entries give survivors of the animals treated and no T/C: the source holds a T/C of zero for them, seemingly a mark for toxic or unscored doses. Some survivor counts are full or nearly so, which does not show that the dose was tolerated: the source hardly ever lists a survival T/C far under the control, and the zero likely stands for such cases as well. Survivors were counted at the toxicity check, usually on the fifth day, unless a day is given; later deaths do not show. Schedule codes are those of the source, read here as Q, the interval in days (D) or hours (H), X, the number of doses. Some doses were run more than once; the results are listed from low to high. For survival time, this PubChem deposit counts one and a half times the control or more as active, and values a quarter to a half above the control carry no call in these data; other NCI protocols may use other cut-offs. Some T/C values are followed by the survivors on the day toxicity was checked, most often the fifth; where none is given, no animal had died by that day.

As to `CCCCNP1(NCCCC)=NP(NCCCC)(NCCCC)=NP(NCCCC)(NCCCC)=NP(NCCCC)(NCCCC)=N1`, the survivor count is recorded as 2 of 6 (T/C endpoint: median survival time, dose: 100.0 mg/kg/injection, schedule: Q01DX009 (ip), vehicle: saline with Tween-80) and 0 of 6 (T/C endpoint: median survival time, dose: 200.0 mg/kg/injection, schedule: Q01DX009 (ip), vehicle: saline with Tween-80).
For `COc1ccc2c(c1)C(=O)C(Br)CC2` (stereo not drawn), the survivor count under setting [1] was 0 of 3 and 0 of 6.
Same read-out and setting: the result for `CCCCCCCN(CCCCCCC)CC(O)c1cc2ccc(Br)cc2c2cccnc12` (stereo not drawn) reads 4 of 6.
Turning to `CCCCCCCCCCCc1n(Cc2ccccc2)c2ccccc2[n+]1C`, the survivor count runs as follows: (T/C endpoint: mean survival time, dose: 5.0 mg/kg/injection, schedule: Q04DX003 (ip), vehicle: saline) 0 of 6; (T/C endpoint: mean survival time, dose: 10.0 mg/kg/injection, schedule: Q04DX003 (ip), vehicle: saline) 2 of 6; (T/C endpoint: mean survival time, dose: 20.0 mg/kg/injection, schedule: Q04DX003 (ip), vehicle: saline) 0 of 6; (T/C endpoint: mean survival time, dose: 100.0 mg/kg/injection, schedule: Q04DX003 (ip), vehicle: saline with Tween-80) 0 of 6; (T/C endpoint: mean survival time, dose: 200.0 mg/kg/injection, schedule: Q04DX003 (ip), vehicle: saline with Tween-80) 0 of 6; (T/C endpoint: mean survival time, dose: 400.0 mg/kg/injection, schedule: Q04DX003 (ip), vehicle: saline with Tween-80) 0 of 6.
On to `Nc1nc(F)nc2nc[nH]c12`, for which the survivor count runs as follows: (T/C endpoint: mean survival time, dose: 75.0 mg/kg/injection, schedule: Q01DX001 (ip), vehicle: other) 0 of 6; (T/C endpoint: mean survival time, dose: 150.0 mg/kg/injection, schedule: Q01DX001 (ip), vehicle: other) 0 of 6; (T/C endpoint: mean survival time, dose: 300.0 mg/kg/injection, schedule: Q01DX001 (ip), vehicle: other) 0 of 6.
`CCC(/C=N\O)CC`: the survivor count (T/C endpoint: mean survival time, dose: 400.0 mg/kg/injection, schedule: Q01DX001 (ip), vehicle: saline) is on record as 2 of 4.
As for `Cc1cn(C2CC(OP(=O)(O)OCC3OC(n4cc(C)c(=O)[nH]c4=O)CC3OP(=O)(O)OCC3OC(n4cc(C)c(=O)[nH]c4=O)CC3OP(=O)(O)OCC3OC(n4cc(C)c(=O)[nH]c4=O)CC3OP(=O)(O)OCC3OC(n4ccc(N)nc4=O)C(O)C3O)C(CO)O2)c(=O)[nH]c1=O` (stereo not drawn), the T/C by setting is: (T/C endpoint: median survival time, dose: 50.0 mg/kg/injection, schedule: Q01DX005 (ip), vehicle: saline) 130 % of control; (T/C endpoint: median survival time, dose: 100.0 mg/kg/injection, schedule: Q01DX005 (ip), vehicle: saline) 139 % of control; (T/C endpoint: median survival time, dose: 200.0 mg/kg/injection, schedule: Q01DX005 (ip), vehicle: saline) 135 and 139 % of control; (T/C endpoint: median survival time, dose: 400.0 mg/kg/injection, schedule: Q01DX005 (ip), vehicle: saline) 148 % of control.
`O=C1CSC(c2cccs2)N1c1nncs1` (stereo not drawn): under setting [2], the T/C is 132 % of control and the survivor count is recorded as 3 of 6. In addition, the survivor count (T/C endpoint: median survival time, dose: 600.0 mg/kg/injection, schedule: Q01DX005 (ip), vehicle: Klucel (hydroxypropylcellulose) (HPC)) is 0 of 6.
For the compound `CN(C)CCCN=C(N)CSP(=O)(O)O`, the survivor count (T/C endpoint: mean survival time, dose: 400.0 mg/kg/injection, schedule: Q04DX002 (ip), vehicle: saline) was 0 of 3.
`CN(C)P1(=O)NCC(C(C)(C)C)CO1` (stereo not drawn): for the setting “T/C endpoint: mean survival time, dose: 500.0 mg/kg/injection, schedule: Q01DX001 (ip), vehicle: water”, the survivor count was 0 of 6.
Consider `CCC(=O)[O][Bi]([c]1ccccc1)[c]1ccccc1`, for which the survivor count by setting is: (T/C endpoint: median survival time, dose: 50.0 mg/kg/injection, schedule: Q01DX009 (ip), vehicle: Klucel (hydroxypropylcellulose) (HPC)) 0 of 6; (T/C endpoint: median survival time, dose: 100.0 mg/kg/injection, schedule: Q01DX009 (ip), vehicle: Klucel (hydroxypropylcellulose) (HPC)) 0 of 6; (T/C endpoint: median survival time, dose: 200.0 mg/kg/injection, schedule: Q01DX009 (ip), vehicle: Klucel (hydroxypropylcellulose) (HPC)) 0 of 6; (T/C endpoint: median survival time, dose: 400.0 mg/kg/injection, schedule: Q01DX009 (ip), vehicle: Klucel (hydroxypropylcellulose) (HPC)) 0 of 6.
For the compound `O=c1[nH]c(/C=C/C=C/c2ccccc2)c([N+](=O)[O-])c(=O)[nH]1`, the T/C (T/C endpoint: mean survival time, dose: 400.0 mg/kg/injection, schedule: Q04DX002 (ip), vehicle: Klucel (hydroxypropylcellulose) (HPC)) is 128 % of control.
Regarding `ClC1=C(Cl)C(Cl)=C(Cl)C1=Cc1ccccc1`, the survivor count (T/C endpoint: mean survival time, dose: 100.0 mg/kg/injection, schedule: Q01DX009 (ip), vehicle: saline with Tween-80) is listed as 5 of 10.
As to `O=C(O)C[Se](=O)O`, the survivor count reads like this: (T/C endpoint: mean survival time, dose: 50.0 mg/kg/injection, schedule: Q01DX001 (ip), vehicle: saline with Tween-80) 1 of 3; under setting [3], 1 of 3; under setting [4], 0 of 3; under setting [5], 0 of 3.
Regarding `Cc1cc(N(C)C)c(C)cc1N=Nc1cc[n+]([O-])cc1`, the survivor count (T/C endpoint: mean survival time, dose: 225.0 mg/kg/injection, schedule: Q04DX002 (ip), vehicle: saline with Tween-80) is on record as 1 of 3.
Turning to `O=C1c2ccccc2C[CH]1[Hg][Cl]` (stereo not drawn), the survivor count (T/C endpoint: mean survival time, dose: 75.0 mg/kg/injection, schedule: Q01DX001 (ip), vehicle: saline) is reported as 0 of 6; the survivor count (T/C endpoint: mean survival time, dose: 150.0 mg/kg/injection, schedule: Q01DX001 (ip), vehicle: saline) was 0 of 6; the survivor count (T/C endpoint: mean survival time, dose: 300.0 mg/kg/injection, schedule: Q01DX001 (ip), vehicle: saline) is on record as 0 of 6.
Take `CC(=O)OCc1ccc(/C=N/Nc2ccc([N+](=O)[O-])cc2[N+](=O)[O-])cc1Br`: the survivor count (T/C endpoint: mean survival time, dose: 100.0 mg/kg/injection, schedule: Q04DX003 (ip), vehicle: saline) is given as 5 of 6.
For `CN(C)N=Nc1ccc(Cl)cc1C(=O)O`, the T/C (T/C endpoint: mean survival time, dose: 178.0 mg/kg/injection, schedule: Q04DX003 (ip), vehicle: other) is 141 % of control. The survivor count (T/C endpoint: mean survival time, dose: 600.0 mg/kg/injection, schedule: Q04DX003 (ip), vehicle: other) was 5 of 6.
Regarding `Cc1ccc(C(C)NC2=NCCO2)c(C)c1` (stereo not drawn), the survivor count under setting [6] was 0 of 3.
With `NC(=O)c1ccc[n+](CCN(CCCl)c2ccc3ccccc3c2)c1`, the survivor count reads like this: (T/C endpoint: mean survival time, dose: 10.0 mg/kg/injection, schedule: Q01DX009 (ip), vehicle: Klucel (hydroxypropylcellulose) (HPC)) 1 of 6; (T/C endpoint: mean survival time, dose: 20.0 mg/kg/injection, schedule: Q01DX009 (ip), vehicle: Klucel (hydroxypropylcellulose) (HPC)) 1 of 6; (T/C endpoint: mean survival time, dose: 40.0 mg/kg/injection, schedule: Q01DX009 (ip), vehicle: Klucel (hydroxypropylcellulose) (HPC)) 0 of 6.
With `O=C(Sc1cn(C2CC(O)C(CO)O2)c(=O)[nH]c1=O)c1ccc(N(CCCl)CCCl)cc1` (stereo not drawn), the T/C is, setting by setting: (T/C endpoint: mean survival time, dose: 100.0 mg/kg/injection, schedule: Q01DX005 (ip), vehicle: water) 135 % of control; (T/C endpoint: mean survival time, dose: 150.0 mg/kg/injection, schedule: Q01DX005 (ip), vehicle: water) 141 % of control [5 of 6 alive].
Regarding `O=C1C=C(C2OC(CO)C(O)C2O)C(=O)N1` (stereo not drawn), the survivor count is 0 of 6 under setting [3], 0 of 6 under setting [4] and 0 of 6 under setting [5].
As for `O=C(Sc1ccccc1)C(CO)c1ccccc1` (stereo not drawn), the survivor count reads like this: under setting [6], 2 of 3; (T/C endpoint: mean survival time, dose: 200.0 mg/kg/injection, schedule: Q04DX002 (ip), vehicle: saline with Tween-80) 1 of 3; (T/C endpoint: mean survival time, dose: 400.0 mg/kg/injection, schedule: Q04DX002 (ip), vehicle: saline with Tween-80) 0 of 3.
On to `Cc1ccc(C2=NNc3n[nH]c(=S)n3N2)cc1`, for which the survivor count under setting [1] was 3 of 6.

The values above are taken from PubChem BioAssay AID256 (DTP/NCI, 2004).
